Article doi:10.1101/2023.06.23.545108
Results are given in words; binding and its absence hold for the method and conditions named. In cells and extracts the contact can be indirect. Here binding means that the protein was enriched with, or labelled near, the bait; the list need not be complete. Sequences can lack the tags named with a protein.

T1: hnRNPM-GFP (heterogeneous nuclear ribonucleoprotein M, C-terminally GFP-tagged) (UniProt P52272)
T1 sequence: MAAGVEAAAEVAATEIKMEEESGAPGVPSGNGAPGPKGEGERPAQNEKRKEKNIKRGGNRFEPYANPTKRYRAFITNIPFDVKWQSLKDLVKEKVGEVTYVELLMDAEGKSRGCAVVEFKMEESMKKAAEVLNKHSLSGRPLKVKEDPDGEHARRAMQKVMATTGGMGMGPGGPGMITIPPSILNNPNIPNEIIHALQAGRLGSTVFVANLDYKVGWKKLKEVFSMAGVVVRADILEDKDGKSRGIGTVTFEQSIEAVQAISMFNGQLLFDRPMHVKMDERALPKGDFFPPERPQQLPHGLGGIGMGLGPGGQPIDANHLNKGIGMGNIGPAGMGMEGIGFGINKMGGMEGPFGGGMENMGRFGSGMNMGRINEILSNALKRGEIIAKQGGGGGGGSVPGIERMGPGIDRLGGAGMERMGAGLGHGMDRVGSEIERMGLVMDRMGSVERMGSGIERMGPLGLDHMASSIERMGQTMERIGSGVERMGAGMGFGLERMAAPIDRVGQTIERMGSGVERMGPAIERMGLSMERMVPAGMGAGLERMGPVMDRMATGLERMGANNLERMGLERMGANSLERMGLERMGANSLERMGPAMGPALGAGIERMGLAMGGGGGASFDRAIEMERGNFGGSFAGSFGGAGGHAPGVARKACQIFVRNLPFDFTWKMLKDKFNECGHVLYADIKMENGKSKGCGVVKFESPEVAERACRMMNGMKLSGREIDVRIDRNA

B1: IKKβ (printed as IKKý; IKBKB), endogenous in THP-1 (protein, UniProt O14920 1-756)
chain: MSWSPSLTTQTCGAWEMKERLGTGGFGNVIRWHNQETGEQIAIKQCRQELSPRNRERWCLEIQIMRRLTHPNVVAARDVPEGMQNLAPNDLPLLAMEYCQGGDLRKYLNQFENCCGLREGAILTLLSDIASALRYLHENRIIHRDLKPENIVLQQGEQRLIHKIIDLGYAKELDQGSLCTSFVGTLQYLAPELLEQQKYTVTVDYWSFGTLAFECITGFRPFLPNWQPVQWHSKVRQKSEVDIVVSEDLNGTVKFSSSLPYPNNLNSVLAERLEKWLQLMLMWHPRQRGTDPTYGPNGCFKALDDILNLKLVHILNMVTGTIHTYPVTEDESLQSLKARIQQDTGIPEEDQELLQEAGLALIPDKPATQCISDGKLNEGHTLDMDLVFLFDNSKITYETQISPRPQPESVSCILQEPKRNLAFFQLRKVWGQVWHSIQTLKEDCNRLQQGQRAAMMNLLRNNSCLSKMKNSMASMSQQLKAKLDFFKTSIQIDLEKYSEQTEFGITSDKLLLAWREMEQAVELCGRENEVKLLVERMMALQTDIVDLQRSPMGRKQGGTLDDLEEQARELYRRLREKPRDQRTEGDSQEMVRLLLQAIQSFEKKVRVIYTQLSKTVVCKQKALELLPKVEEVVSLMNEDEKTVVRLQEKRQKELWNLLKIACSKVRGPVSGSPDSMNASRLSQPGQLMSQPSTASNSLPEPAKKSEELVAEAHNLCTLLENAIQDTVREQDQSFTALDWSWLQTEEEEHSCLEQAS

These molecules were tested against T1, hnRNPM-GFP (heterogeneous nuclear ribonucleoprotein M, C-terminally GFP-tagged) (assay: affinity purification with mass spectrometry).

Question: How did the binding turn out when “DDX3X, endogenous in THP-1 (from UniProt O00571 1-662)” was run?
Answer: The binding was “binds”.

Question: “pre-mRNA-splicing factor ATP-dependent RNA helicase DHX15 (DHX15), endogenous in THP-1 (from UniProt O43143 1-795)” was tested. Which binding did it give?
Answer: Its binding is “binds”.

Question: “DNA-dependent protein kinase catalytic subunit (PRKDC), endogenous in THP-1 (from UniProt P78527 1-4128)” was tested. Which binding did it give?
Answer: The binding was “binds”.

Question: How did the binding turn out when “ELAV-like protein 1 (ELAVL1), endogenous in THP-1 (from UniProt Q15717 1-326)” was run?
Answer: The binding was “binds”.

Question: Which binding does the source give for “zinc finger CCCH-type antiviral protein 1 (ZC3HAV1), endogenous in THP-1 (from UniProt Q7Z2W4 1-902)” here?
Answer: The binding was “binds”.

Question: How did the binding turn out when B1 was run?
Answer: Its binding is “binds”.
